# The other results are listed elsewhere or left out. Repeats are few or missing, and single values can be far off.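 Imaging used 1,536-well plates; nuclei positive for cleaved PARP by antibody were divided by total DNA-stained nuclei to yield the apoptosis fraction. Doses for screening kept most cells viable, and cell lines differ markedly in resting and induced cleaved-PARP levels.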
# Legend:
# Test in all cases: cleaved PARP positive nuclei fraction relative to DMSO control; melanoma cells; higher = more apoptosis
# Settings in all cases: library dose: low library concentration; 72 h
# [1] = test system: MZ2-MEL
# [2] = test system: MeWo
# [3] = test system: RPMI7951
# [4] = test system: RVH-421
# [5] = test system: SkMel28
# [6] = test system: SkMel2
# [7] = test system: SkMel30
# [8] = test system: SkMel5
# [9] = test system: UACC257
# [10] = test system: UACC62
# [11] = test system: WM115
# [12] = test system: WM1716
# [13] = test system: WM1745
# [14] = test system: WM3526
# [15] = test system: WM3619
# [16] = test system: WM451Lu
Compound,cleaved PARP positive nuclei fraction [1],cleaved PARP positive nuclei fraction [2],cleaved PARP positive nuclei fraction [3],cleaved PARP positive nuclei fraction [4],cleaved PARP positive nuclei fraction [5],cleaved PARP positive nuclei fraction [6],cleaved PARP positive nuclei fraction [7],cleaved PARP positive nuclei fraction [8],cleaved PARP positive nuclei fraction [9],cleaved PARP positive nuclei fraction [10],cleaved PARP positive nuclei fraction [11],cleaved PARP positive nuclei fraction [12],cleaved PARP positive nuclei fraction [13],cleaved PARP positive nuclei fraction [14],cleaved PARP positive nuclei fraction [15],cleaved PARP positive nuclei fraction [16]
"C=CCNC1=C2C[C@@H](C)C[C@H](OC)[C@H](O)[C@@H](C)/C=C(\C)[C@H](OC(N)=O)[C@@H](OC)/C=C\C=C(/C)C(=O)NC(=CC1=O)C2=O [Tanespimycin] + O=C(O)c1ccc(-c2c[nH]c3ncc(-c4ccccc4)cc23)cc1C1CCCC1 [GSK650394] (first compound 0.002 µM, partner dose 0.16 µM)",176%,115%,167%,101%,69.8%,107%,63.3%,66.9%,55.9%,107%,73.5%,157%,109%,62.7%,147%,44.4%
"OCc1c[nH]c2ccccc12 [Indole-3-carbinol] + COc1cc2ncnc(Nc3ccc(Oc4ccccc4)cc3)c2cc1OC [SrcI1] (first compound 0.8 µM, partner dose 2 µM)",98.5%,129%,71.4%,20.8%,211%,89.2%,169%,35.8%,51.2%,113%,141%,36.9%,96.7%,35.5%,781%,43.9%
"CC(=O)c1c(C)c2cnc(Nc3ccc(N4CCNCC4)cn3)nc2n(C2CCCC2)c1=O [palbociclib] + CN(NC(=O)CC(=O)NN(C)C(=S)c1ccccc1)C(=S)c1ccccc1 [STA4783] (first compound 0.04 µM, partner dose 0.006 µM)",92.6%,290%,51.5%,215%,176%,42.9%,93.3%,163%,62.4%,80.7%,170%,225%,421%,93.9%,639%,121%
"OCCn1cc(-c2cnc3nnn(Cc4ccc5ncccc5c4)c3n2)cn1 + CN(C)S(=O)(=O)c1ccc2c(c1)/C(=C/c1cc3c([nH]1)CCCC3)C(=O)N2 [SU6656] (first compound 1 µM, partner dose 0.4 µM)",74.1%,72.1%,118%,90.2%,61%,36.9%,151%,35.3%,68.7%,39.4%,129%,85.8%,80.8%,98%,85.8%,133%
"Clc1ccc(Nc2nnc(Cc3ccncc3)c3ccccc23)cc1 [vatalanib] + O=C(Nc1ccccc1)c1cc([N+](=O)[O-])ccc1Cl [GW9662] (first compound 2 µM, partner dose 2 µM)",131%,126%,83.5%,134%,91.5%,56.5%,121%,79%,67.6%,135%,97.8%,232%,121%,79.1%,67.6%,251%
"Clc1ccc(Nc2nnc(Cc3ccncc3)c3ccccc23)cc1 [vatalanib] + O=c1cc(-c2cccc3c2Sc2ccccc2S3)oc(N2CCOCC2)c1 [KU55933] (first compound 2 µM, partner dose 1 µM)",92.2%,105%,47.8%,52.7%,87.4%,54.2%,46.8%,231%,111%,81.9%,196%,107%,116%,75.2%,94.2%,141%
"COc1cc(Nc2ncc(F)c(Nc3ccc4c(n3)NC(=O)C(C)(C)O4)n2)cc(OC)c1OC [Tamatinib] + CN(NC(=O)CC(=O)NN(C)C(=S)c1ccccc1)C(=S)c1ccccc1 [STA4783] (first compound 0.4 µM, partner dose 0.006 µM)",198%,143%,55.8%,95.1%,71.1%,55.7%,127%,94.3%,119%,186%,185%,218%,230%,58.5%,185%,77.4%
"C#Cc1cccc(Nc2ncnc3cc(OCCOC)c(OCCOC)cc23)c1 [erlotinib] + Cc1ccc(NC(=O)c2cccc(N(C)C)c2)cc1NC(=O)c1ccc(O)cc1 [ZM336372] (first compound 0.8 µM, partner dose 2 µM)",52.6%,92.4%,152%,148%,37.8%,69.9%,77.3%,107%,61.8%,56%,47.8%,16.3%,104%,63.7%,293%,74.1%
